Measurements taken from PMC6896144.
No constants are given. Whether binding was seen depends on the method and setting. In cells and extracts the contact can be indirect. Sequences can lack the tags named with a protein.

Molecular target: S381A-FLAG (UniProt P46937)
Assay: co-IP; HCT116 co-transfected with DUSP10-V5 and a YAP-FLAG plasmid. Cells were cross-linked with 2 mM DSP for 30 min, then lysed in RIPA buffer. Anti-FLAG (or normal IgG) and protein A/G agarose at 4 °C, then immunoblot.

- binding: no binding
B1: DUSP10-WT-V5 (enzyme, UniProt Q9Y6W6 1-482)
chain: MPPSPLDDRVVVALSRPVRPQDLNLCLDSSYLGSANPGSNSHPPVIATTVVSLKAANLTYMPSSSGSARSLNCGCSSASCCTVATYDKDNQAQTQAIAAGTTTTAIGTSTTCPANQMVNNNENTGSLSPSSGVGSPVSGTPKQLASIKIIYPNDLAKKMTKCSKSHLPSQGPVIIDCRPFMEYNKSHIQGAVHINCADKISRRRLQQGKITVLDLISCREGKDSFKRIFSKEIIVYDENTNEPSRVMPSQPLHIVLESLKREGKEPLVLKGGLSSFKQNHENLCDNSLQLQECREVGGGASAASSLLPQPIPTTPDIENAELTPILPFLFLGNEQDAQDLDTMQRLNIGYVINVTTHLPLYHYEKGLFNYKRLPATDSNKQNLRQYFEEAFEFIEEAHQCGKGLLIHCQAGVSRSATIVIAYLMKHTRMTMTDAYKFVKGKRPIISPNLNFMGQLLEFEEDLNNGVTPRILTPKLMGVETVV
